# Experimental data: PubChem BioAssay AID1259254 (NCATS, 2017)
# Purpose: 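Finding genes that stop cells copying their DNA twice in one cycle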 (primary screen)
# Cell system: human HCT116 colorectal cancer cells
# Reagents: single siRNA against human genes
# Timing: 3 days
# Measured: 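Nuclei stained with Hoechst and imaged; cell-cycle phase assigned by DNA content; G2 share scaled per plate, non-targeting siRNA 0%, GMNN siRNA 100%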
# Scale: G2 robust z-score and G2 cells, % of GMNN control: higher = more G2 cells, more excess DNA replication; raw share of cells in G2: higher = larger share of cells with G2 DNA content
# Call rule: 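An siRNA counts as active if its G2 robust z-score lies at least 5 MADs above the screen median; here such calls match roughly 38% of GMNN control or more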
# This is an unselected part of about 59,000 reagents. About 1,550 of them (2.6%) count as active. 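G2 share is only a proxy for re-replication; each gene was hit by three separate siRNAs, and active genes were retested.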 The raw values are shown without normalisation. The numbers tell different reagents against one gene apart. Not given: the amount of reagent.
gene knocked down,reagent no.,G2 robust z-score,"G2 cells, % of GMNN control",raw share of cells in G2 (%),Outcome
CCDC15,1,1.09,10.6,8.84,inactive
CCDC15,2,3.05,24.4,15,inactive
CCDC15,3,-0.298,0.873,2.62,inactive
APOA4,1,-0.508,-0.61,4.51,inactive
APOA4,2,-0.597,-1.23,4.64,inactive
APOA4,3,3.33,26.4,13.8,inactive
BIN1,1,1.05,10.4,7.57,inactive
BIN1,2,-0.159,1.85,5.71,inactive
BIN1,3,1.75,15.3,8.66,inactive
RRP9,1,-1.32,-6.34,2.32,inactive
RRP9,2,0.121,3.82,5.41,inactive
RRP9,3,2.71,22,11.1,inactive
NDUFAF5,1,1.35,12.4,10,inactive
NDUFAF5,2,-0.247,1.23,5.16,inactive
NDUFAF5,3,1.3,12.1,5.89,inactive
TP53INP2,1,-0.903,-3.39,1.96,inactive
TP53INP2,2,-0.0507,2.61,5.38,inactive
TP53INP2,3,0.158,4.08,6.41,inactive
HDAC5,1,0.349,5.43,5.05,inactive
HDAC5,2,0.434,6.02,7.48,inactive
HDAC5,3,-0.64,-1.54,4.13,inactive
CEP68,1,2.85,23,11.8,inactive
CEP68,2,-0.586,-1.15,4.53,inactive
CEP68,3,0.524,6.66,6.88,inactive
TNFSF8,1,1.74,15.2,12.4,inactive
TNFSF8,2,-0.362,0.422,4.24,inactive
TNFSF8,3,1.66,14.6,9.26,inactive
GM2A,1,0.958,9.71,9.85,inactive
GM2A,2,-0.728,-2.15,3.3,inactive
GM2A,3,4.7,36,17.6,inactive
TTC16,1,-0.0874,2.35,5.69,inactive
TTC16,2,3.65,28.6,19.6,inactive
TTC16,3,-0.327,0.667,4.95,inactive
STMND1,1,0.0361,3.22,6.13,inactive
STMND1,2,-1.13,-5.01,1.99,inactive
STMND1,3,-0.178,1.72,4.2,inactive
MLF1,1,0.229,4.58,7.29,inactive
MLF1,2,0.468,6.26,5.26,inactive
MLF1,3,3.73,29.2,16.7,inactive
RAP2B,1,-0.578,-1.1,4.6,inactive
RAP2B,2,-0.119,2.13,5.49,inactive
RAP2B,3,0.297,5.06,5.83,inactive
CKAP2L,1,0.925,9.48,7.01,inactive
CKAP2L,2,0.352,5.44,4.59,inactive
CKAP2L,3,0.167,4.14,4.51,inactive
NCF4,1,0.503,6.5,7.74,inactive
NCF4,2,1.09,10.6,8.43,inactive
NCF4,3,4.82,36.9,16.7,inactive
SRP68,1,-0.601,-1.26,4.11,inactive
SRP68,2,1.03,10.2,7.33,inactive
SRP68,3,-0.988,-3.99,4.34,inactive
CASP4,1,1.11,10.8,9.31,inactive
CASP4,2,-0.982,-3.94,3.51,inactive
CASP4,3,-0.748,-2.3,3.05,inactive
H2BC7,1,1.51,13.6,11.2,inactive
H2BC7,2,-0.162,1.83,4.62,inactive
H2BC7,3,-0.592,-1.2,2.92,inactive
GPRASP2,1,1.43,13,9.3,inactive
GPRASP2,2,0.58,7.05,5.43,inactive
GPRASP2,3,0.535,6.73,3.79,inactive
CFAP99,1,0.0342,3.21,4.98,inactive
CFAP99,2,-0.875,-3.19,2.25,inactive
CFAP99,3,-0.552,-0.914,4.41,inactive
CFAP99,4,-0.58,-1.12,3.19,inactive
CFAP99,5,0.282,4.95,5.29,inactive
CFAP99,6,0.625,7.37,5.62,inactive
WFDC9,1,0.668,7.66,6.44,inactive
WFDC9,2,1.92,16.5,9.43,inactive
WFDC9,3,0.336,5.33,4.89,inactive

Records above whose target name starts with T or t:
gene knocked down,reagent no.,G2 robust z-score,"G2 cells, % of GMNN control",raw share of cells in G2 (%),Outcome
TP53INP2,1,-0.903,-3.39,1.96,inactive
TP53INP2,2,-0.0507,2.61,5.38,inactive
TP53INP2,3,0.158,4.08,6.41,inactive
TNFSF8,1,1.74,15.2,12.4,inactive
TNFSF8,2,-0.362,0.422,4.24,inactive
TNFSF8,3,1.66,14.6,9.26,inactive
TTC16,1,-0.0874,2.35,5.69,inactive
TTC16,2,3.65,28.6,19.6,inactive
TTC16,3,-0.327,0.667,4.95,inactive
